Results deposited as PubChem BioAssay AID1259306 (Sanger Institute, 2017).
The whole screen tested 794 reagents; shown is an unselected part. In the full data, 11 (1.4%) got an active call. 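Calls reflect knock-down alone; synergy scores play no part, so knock-downs synergising with a drug can be called no change.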 No viability above 1 is reported: the scale is capped. Not given: the amount of reagent, the time to read-out.

Screen: 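Find kinases whose loss reduces colorectal cancer cell viability or aids targeted drugs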 (primary screen)
Cells: human SNU-C5 colorectal cancer cells
Knock-down reagent: siRNA pool against human genes
Conditions: DMSO vehicle alone, or one anchor drug: BYL719 at 1 µM, cetuximab at 5 µg/ml or trametinib at 10 nM, given 24 h into the assay
Measurement: 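Replicate-averaged viability against non-targeting pool control, given as fraction and robust z-score; separate synergy scores for BYL719, cetuximab and trametinib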
Reading the numbers: robust z-score, knock-down alone and viability, knock-down alone: higher = more viable cells; synergy score with BYL719: higher = stronger synthetic lethality with BYL719; synergy score with cetuximab: higher = stronger synthetic lethality with cetuximab; synergy score with trametinib: higher = stronger synthetic lethality with trametinib
Active means: 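Called essential when the robust z-score for knock-down alone is below -3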
Meaning of the calls: active = essential (knock-down alone); inactive = no change alone

| gene symbol | robust z-score, knock-down alone | viability, knock-down alone | synergy score with BYL719 | synergy score with cetuximab | synergy score with trametinib | activity call |
| --- | --- | --- | --- | --- | --- | --- |
| FLT4 | -2.28 | 0.55 | -0.0558 | 0.144 | -0.195 | inactive |
| AK7 | -1.38 | 0.674 | 0.0593 | 0.13 | -0.069 | inactive |
| FGFR2 | -2.08 | 0.577 | -0.216 | -0.144 | -0.26 | inactive |
| NTRK1 | -0.855 | 0.746 | -0.0804 | 0.0509 | 0.067 | inactive |
| GALK1 | -2.09 | 0.576 | 0.112 | 0.105 | -0.0465 | inactive |
| CAMKV | 0.00167 | 0.864 | 0.218 | 0.0294 | -0.0931 | inactive |
| SIK2 | -1.29 | 0.686 | -0.0411 | 0.151 | -0.399 | inactive |
| STK38 | -0.513 | 0.793 | -0.118 | 0.0785 | -0.0805 | inactive |
| STK10 | 0.949 | 0.995 | -0.00547 | -0.00547 | -0.064 | inactive |
| DCK | -0.109 | 0.849 | 0.136 | 0.199 | 0.167 | inactive |
| TRIB3 | -1.33 | 0.68 | 0.0385 | -0.134 | -0.168 | inactive |
| ROCK1 | 0.989 | 1 | 0.0149 | 0 | -0.0865 | inactive |
| PRAG1 | -0.762 | 0.759 | 0.061 | -0.0731 | 0.0412 | inactive |
| DGKG | -0.173 | 0.84 | -0.0457 | -0.0318 | -0.032 | inactive |
| DDR1 | 0.841 | 0.98 | 0.146 | 0.184 | 0.0363 | inactive |
| CSK | 0.308 | 0.906 | 0.112 | -0.0295 | 0.0127 | inactive |
| TTK | -0.996 | 0.727 | -0.053 | -0.12 | -0.0387 | inactive |
| NME2 | -0.456 | 0.801 | 0.057 | -0.0547 | -0.168 | inactive |
| ALDH18A1 | -0.349 | 0.816 | 0.201 | -0.184 | -0.183 | inactive |
| GATA3 | -0.876 | 0.743 | -0.00757 | -0.0933 | -0.171 | inactive |

The list goes on; the last 4 above are carried over.
| gene symbol | robust z-score, knock-down alone | viability, knock-down alone | synergy score with BYL719 | synergy score with cetuximab | synergy score with trametinib | activity call |
| --- | --- | --- | --- | --- | --- | --- |
| TTK | -0.996 | 0.727 | -0.053 | -0.12 | -0.0387 | inactive |
| NME2 | -0.456 | 0.801 | 0.057 | -0.0547 | -0.168 | inactive |
| ALDH18A1 | -0.349 | 0.816 | 0.201 | -0.184 | -0.183 | inactive |
| GATA3 | -0.876 | 0.743 | -0.00757 | -0.0933 | -0.171 | inactive |
| UCK2 | 0.989 | 1 | 0.268 | 0.191 | 0.00982 | inactive |
| PEAK1 | -0.786 | 0.755 | -0.00687 | -0.0488 | 0.0246 | inactive |
| EIF2AK3 | 0.591 | 0.945 | -0.0145 | 0.0427 | 0.00246 | inactive |
| MAPK13 | 0.989 | 1 | 0.0168 | 0 | -0.134 | inactive |
| SLK | 0.439 | 0.924 | -0.061 | -0.0758 | -0.0904 | inactive |
| MAPK7 | 0.989 | 1 | 0 | 0.156 | 0.0832 | inactive |
| STK17A | -0.638 | 0.776 | 0.167 | 0.111 | -0.0414 | inactive |
| MGA | -2.5 | 0.519 | -0.122 | -0.0613 | -0.0764 | inactive |
| RIPK1 | -1.28 | 0.688 | 0.0998 | 0.144 | -0.104 | inactive |
| PDGFRA | 0.285 | 0.903 | 0.0432 | 0.0662 | 0.0238 | inactive |
| CDK6 | 0.146 | 0.884 | 0.232 | 0.0217 | 0.0445 | inactive |
| GALK2 | -1.17 | 0.702 | 0.0512 | 0.00695 | -0.148 | inactive |
| MAP2K6 | 0.989 | 1 | 0 | 0 | -0.0177 | inactive |
| ERBB4 | -0.998 | 0.726 | 0.0316 | 0.063 | 0.0298 | inactive |
| NME3 | 0.847 | 0.98 | 0.0375 | -0.0196 | -0.0296 | inactive |
| SIK3 | 0.415 | 0.921 | 0.00451 | -0.0791 | -0.122 | inactive |
| ABL2 | 0.989 | 1 | 0 | 0.0657 | 0.107 | inactive |
| PRKD3 | -0.951 | 0.733 | -0.106 | 0.09 | -0.112 | inactive |
| IKBKB | 0.989 | 1 | 0.0707 | 0 | 0.0726 | inactive |
| BRD4 | -0.444 | 0.803 | -0.0125 | -0.129 | 0.0519 | inactive |
| PRPS1 | -1.69 | 0.631 | -0.0397 | -0.319 | -0.0456 | inactive |
| MAPKAPK2 | 0.696 | 0.96 | 0.333 | 0.0818 | -0.104 | inactive |
| CTCF | -1.73 | 0.625 | 0.0174 | 0.0587 | -0.287 | inactive |
| EXOSC10 | -0.826 | 0.75 | -0.113 | 0.0129 | -0.0514 | inactive |
| CEP290 | 0.159 | 0.886 | 0.0215 | -0.0385 | -0.0685 | inactive |
| HASPIN | -1.22 | 0.696 | 0.0681 | -0.0707 | -0.331 | inactive |
| NME4 | -0.382 | 0.811 | -0.0828 | 0.102 | -0.0332 | inactive |
| PAPSS1 | 0.989 | 1 | 0 | 0 | -0.0982 | inactive |
| ELF3 | -2.02 | 0.586 | -0.0121 | -0.00668 | -0.0863 | inactive |
| DYRK1B | 0.682 | 0.958 | -0.0423 | -0.0423 | 0.0339 | inactive |
